# Percent effect of library compounds

Each number is a percent effect as filed. The controls that fix the scale are not given in the record; negative values are as filed. The compounds are a random part of those screened. Two or more numbers in one place are separate tests of the same structure; such repeats can differ widely.

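Growth of Mycobacterium tuberculosis over 3 days (7H9 medium with glucose and tyloxapol); the read-out is not stated. Compounds at 50 µM. The record gives no direction; compounds that gave an IC50 in retests scored well above the rest, so higher reads as more growth inhibition. About 69,000 compounds were tested under these conditions; 1.1% (about 760) showed 50% or more at least once.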

SMILES	effect
c1ccc2c(c1)CN(c1ncnc3sc4c(c13)CCNC4)CCO2	11.02%
Cc1nc(CN2CCCC(NCCCOc3ccc(F)cc3)C2)no1 (stereo not given)	28.43%
O=C(NCC(=O)N1CC2(CCCC2)c2c(F)cccc21)C1CC1	40.85%
N#Cc1cccc(N2CCCC3(CNCCO3)C2)n1.O=C(O)C(F)(F)F.O=C(O)C(F)(F)F (stereo not given)	1.429% and 25.57%
O=C(c1cc(C2CCCC2)no1)N1CC(O)C1	3.216% and 9.283%
O=C(CCc1cncc(F)c1)NS(=O)(=O)c1ccc(F)cc1F	-10.65%
CC(C)CCC1=NC2(CCN(C(=O)N3CCN(C)CC3)CC2)C(=O)N1	-20.55%
COCc1noc(-c2ccc(N(C)Cc3c(C)n[nH]c3C)nc2)n1	3.966%
COc1ccc(CNC(C)Cn2cccn2)cc1OC (stereo not given)	-3.937%
CCc1nnc2n1CCN(C(=O)c1ccc(-c3ccco3)nc1C)C2	5.617%
Fc1ccc(C2(CNC3=NCCN3)CCCC2)cc1.I	13.49%
CC(Oc1ccc(OCc2ncc(C(C)C)o2)cc1)C(N)=O (stereo not given)	20.31%
CCCN1CCC(NCc2ccncc2)CC1	-14.24%
COCCN1CC2(CCC1=O)CCN(Cc1nnc(C)o1)CC2	15% and 3.464%
Cc1noc(C)c1CN(C)c1nc(C2CCCC2)nc2c1cnn2C	-16.84%
CC(CN1CCCC1=O)NC(=O)c1ccc(-c2ccco2)[nH]c1=O (stereo not given)	13.94%
COc1ccnc(CNc2nc(C)nc(C)c2C)c1	2.481% and 4.676%
CC(Cc1ccco1)NC(=O)NCc1ncnn1C (stereo not given)	-27.21%
[H][C@]12CCC[C@@]1(COCC1CCOCC1)CN(C(=O)c1ncccn1)C2	-8.032%
COCC1COCCC12CCN(S(=O)(=O)c1ccc(C)cc1)CC2 (stereo not given)	30.67%
COC(=O)c1cccc(S(=O)(=O)NC(=O)COC2CCCCC2)c1	4.73%
O=C(c1noc2c1CCCC2)N1CCCC(c2nccs2)C1 (stereo not given)	25.89%
COCCN(C(=O)c1ccccn1)c1nc2c(s1)CCc1c-2cnn1C	-0.8111%
CN1CCN(CCCNC(=O)c2nc3ccccc3c(=O)[nH]2)CC1	-32.2%
CS(=O)(=O)NCc1cnc2n1CCN(Cc1cccs1)CC2.O=C(O)C(F)(F)F	-3.903%
Cc1n[nH]c(C)c1Sc1ccccc1NC(=O)N1CCN(C)CC1	-29.84%
COC1COC2(CCN(CC3CC3)CC2)C1.O=C(O)C(F)(F)F (stereo not given)	5.238%
CCOCCN1CCN(CC(=O)N2CCCC2)CC1C (stereo not given)	-1.212%
Cc1nsc(N2CCCN(C(=O)NCc3cccnc3)CC2)n1	-17.93%
CCS(=O)(=O)N1CCN(Cc2ccncc2)c2nc(C)ccc2C1.O=C(O)C(F)(F)F.O=C(O)C(F)(F)F	10.46%
CCC(CO)N(Cc1cccnc1)C(=O)c1ccoc1C (stereo not given)	-20.84%
COc1ccccc1CN1CC(O)CN(C(=O)OCC(C)C)CC1=O (stereo not given)	-13.5%
O=C(O)C(F)(F)F.O=C1CCCN1Cc1ncn2c1CN(C(=O)N1CCCC1)CCC2	38.55%
CN(C)C(=O)c1ccc(C(C(=O)O)N(C)Cc2ccccc2Cl)cc1 (stereo not given)	11.85%
CN(Cc1noc(C(C)(C)C)n1)CC1CCN(CCO)CC1	-5.098% and 17.43%
CCNC(=O)[C@@H]1C[C@@H](NC(=O)c2cc(C)on2)CN1Cc1ccccn1	-0.5216%
Cc1cc2n(n1)CC(CNC1CCN(C3CC3)CC1)CN2 (stereo not given)	28.64% and 65.82%
Cc1nc2ccc(Cl)cn2c1CN1CCN(S(=O)(=O)N2CCCC2)CC1	-29.49%
CCC(=O)c1ccc(OCC(=O)N(C)C(C)c2ccon2)cc1 (stereo not given)	-15.51%
Cc1ccc(C(=O)N2CCC(Oc3ccc(F)cc3F)CC2)c(=O)[nH]1	-27.5%
Fc1cc(F)cc(CN2CCC(c3cc4ncccc4cn3)CC2)c1	9.196%
COc1c(C)cnc(CN(C)C2CCN(C3CCOCC3)CC2)c1C	21.24%
CC(C)N(Cc1cnn(C)c1)CC1CCCN(S(C)(=O)=O)C1 (stereo not given)	-11.87%
COCc1nn(CC2CC2)c2c1CN(Cc1cccs1)CC2.O=C(O)C(F)(F)F	-15.58%
O=C(O)C(F)(F)F.O=C(O)C(F)(F)F.[H][C@@]12CN(CCN3CCCC3)CC[C@]1([H])CN(c1cc(OC)ncn1)C2	-6.161% and 0.979%
Cc1ccc(CN(C)C(=O)c2cc(Cn3ccnc3C(C)C)[nH]n2)o1	1.484%
COCCO[C@H]1COCCN(C2CCN(C)CC2)C1	-3.053% and -6.668%
CCCn1nnnc1COC(=O)C1Cc2cc(Cl)ccc2O1 (stereo not given)	-0.3251%
COc1cccc(COCC(=O)NC(C(N)=O)c2ccccc2)c1 (stereo not given)	1.496% and -10.2%
CCOC(=O)N(C)C1CCN(Cc2ccsc2)CC1	-0.5438% and 5.609%
Cn1c(CN2CCC(OCc3cccnc3)CC2)cc2ccccc21	7.713%
CC(C)NC(=O)N1CCC2(CC1)Cc1ccccc1CNC2=O	-8.081%
CC(C)CC(C#N)NC(=O)CCNC(=O)C(C)(C)C (stereo not given)	37.65%
CC(C(=O)NCc1ccnc(N2CCCC2)c1)n1cccn1 (stereo not given)	16.93%
CS(=O)(=O)c1ccc(CN2CCCC3(C2)C(=O)Nc2ccccc23)cc1 (stereo not given)	-23.99% and -0.6412%
O=C(NCc1ccnc(C2CCCOC2)n1)c1cccs1 (stereo not given)	-14.03%
CCOc1ccc(CNC2CCCN(c3cccnn3)C2)cc1OC (stereo not given)	0.9369% and 10.65%
COc1ccc2c(c1)C(NCCc1ncc(C)s1)CCCO2 (stereo not given)	19.39%
CCN(C)C(=O)c1ccnn1-c1ccc2ccccn12	-20.91% and -8.997%
Cc1cccc(CN2C(=O)CCC23CCN(C(=O)c2ccco2)CC3)n1.O=C(O)C(F)(F)F	-2.44%
COc1ccc(-c2ccc(C(=O)N3CCOCC3CC(=O)O)o2)cc1 (stereo not given)	-10.09%
Cc1ccc(C(=O)Nc2ccc3c(c2)N(C)CCN(C)C3)c(=O)[nH]1	-6.706%
CN1CCN(c2ccc(Br)cc2NC(=O)c2ccco2)CC1	46.78%
CCC(C)N(C)S(=O)(=O)c1ccc(CCNC(C)=O)s1 (stereo not given)	5.866% and -2.316%
Cc1nc(CNc2nc(-c3ccco3)nc3c2CCNCC3)n[nH]1	28.35%
Cc1cc(C)c(S(=O)(=O)Nc2ccccc2CC(F)(F)F)cc1C(=O)O	-2.701%
O=C(O)C(F)(F)F.[H][C@@]12CCN(CCc3ccccc3)C[C@@]1([H])O[C@@H](C(=O)NCCOC)C2	-20%
Cn1cc(CNc2cnn(CCO)c2)c(-c2ccncc2)n1	10.18%
CN(Cc1nccn1C)C(=O)C1COCC(=O)N1Cc1ccccc1 (stereo not given)	-9.151%

Some entries from above, unchanged:

Result for Cc1cccc(CN2C(=O)CCC23CCN(C(=O)c2ccco2)CC3)n1.O=C(O)C(F)(F)F was -2.44%.
Result for Cc1ccc(C(=O)Nc2ccc3c(c2)N(C)CCN(C)C3)c(=O)[nH]1 was -6.706%.
Result for O=C(NCC(=O)N1CC2(CCCC2)c2c(F)cccc21)C1CC1 was 40.85%.
Result for CCN(C)C(=O)c1ccnn1-c1ccc2ccccn12 was -20.91% and -8.997%.
Result for O=C(CCc1cncc(F)c1)NS(=O)(=O)c1ccc(F)cc1F was -10.65%.
Result for COC(=O)c1cccc(S(=O)(=O)NC(=O)COC2CCCCC2)c1 was 4.73%.

From ChEMBL document CHEMBL3988442, “University of Dundee, Small-Polar-MMV Screening Library” (2021).